# Assay results reported in the supplement of paper PMC8728848.
# This is one part of the list.
# B1: GS13814A-bth-462-26-462 (Bacteroides thetaiotaomicron) (protein)
# chain: DDRDNLMVNDQIGLLHSTYTETEIFRGMDTPYQLFVIKSGKGKQETEVSISVDETVLQSYNTDNGTSIQLLPSDCYTILQPALRLNDSDYRKAFDIKWNADRLSDLLSTGKEYGLPIQMSVVQNFISADDERLKTIIVPTIKEPYLQMDVPGMSPVTDFMPTFGDLNERELFVKIRTNYSNDEDISFQIEVDPQLVIDYNTAHGTAYKMLPESSFTVDNKGVILTGMKETFIKIKYHKKGLIPEEGTYLFGDYVLPLRITSVSKYGISPDAASKLYTVKFQPDPIDKKGWSVIDFNNCCTQDGGWYLNMGWGVESLIDNNPGTQWLCRWDVKEPLPYYFVFDMGKEYTLFRFGFANPVAPAAHVWAGTSKAGYVEASIDNENWVKLKDWTSPKIGEPNVNMDVPATQARYIRFVITDTYPTYDGLRVSLGEVYAWGM
# Tests used:
# Test in all cases: glycan array binding signal (z-score within array); higher = stronger binding
# Conditions in all cases: glycan notation: IUPAC condensed, linker removed
# [1] = target: Gal(b1-4)GlcNAc(b1-2)[Gal(b1-4)GlcNAc(b1-6)]Man(a1-6)[GlcNAc(b1-4)][Gal(b1-4)GlcNAc(b1-2)Man(a1-3)]Man(b1-4)GlcNAc(b1-4)GlcNAc
# Procedure, shortened: (§1)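 Negative Z-scores can be read as non-binding. The Z-score is calculated within each array and then averaged across arrays of one protein sequence at different concentrations or buffers and across linkers. Arrays, 3228 in all, were curated from the Consortium for Functional Glycomics database and kept only where the protein sequence was available.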
# [2] = target: Gal(b1-4)GlcNAc(b1-2)[Gal(b1-4)GlcNAc(b1-6)]Man(a1-6)[GlcNAc(b1-4)][Gal(b1-4)GlcNAc(b1-2)[Gal(b1-4)GlcNAc(b1-4)]Man(a1-3)]Man(b1-4)GlcNAc(b1-4)[Fuc(a1-6)]GlcNAc
# Procedure, shortened: as §1
# [3] = target: Gal(b1-4)GlcNAc(b1-3)Gal(b1-3)GalNAc
# Procedure, shortened: as §1
# [4] = target: Gal(b1-4)GlcNAc(b1-3)Gal(b1-3)GlcNAc
# Procedure, shortened: as §1
# [5] = target: Gal(b1-4)GlcNAc(b1-3)Gal(b1-4)Glc
# Procedure, shortened: as §1
# [6] = target: Gal(b1-4)GlcNAc(b1-3)Gal(b1-4)GlcNAc
# Procedure, shortened: as §1
# [7] = target: Gal(b1-4)GlcNAc(b1-3)Gal(b1-4)GlcNAc(b1-2)Man(a1-3)[Gal(b1-4)GlcNAc(b1-3)Gal(b1-4)GlcNAc(b1-2)Man(a1-6)]Man(b1-4)GlcNAc(b1-4)GlcNAc
# Procedure, shortened: as §1
# [8] = target: Gal(b1-4)GlcNAc(b1-3)Gal(b1-4)GlcNAc(b1-2)Man(a1-3)[Gal(b1-4)GlcNAc(b1-3)Gal(b1-4)GlcNAc(b1-2)Man(a1-6)]Man(b1-4)GlcNAc(b1-4)[Fuc(a1-6)]GlcNAc
# Procedure, shortened: as §1
# [9] = target: Gal(b1-4)GlcNAc(b1-3)Gal(b1-4)GlcNAc(b1-2)[Gal(b1-4)GlcNAc(b1-3)Gal(b1-4)GlcNAc(b1-6)]Man(a1-6)[Gal(b1-4)GlcNAc(b1-3)Gal(b1-4)GlcNAc(b1-2)Man(a1-3)]Man(b1-4)GlcNAc(b1-4)GlcNAc
# Procedure, shortened: as §1
# [10] = target: Gal(b1-4)GlcNAc(b1-3)Gal(b1-4)GlcNAc(b1-2)[Gal(b1-4)GlcNAc(b1-3)Gal(b1-4)GlcNAc(b1-6)]Man(a1-6)[Gal(b1-4)GlcNAc(b1-3)Gal(b1-4)GlcNAc(b1-2)Man(a1-3)]Man(b1-4)GlcNAc(b1-4)[Fuc(a1-6)]GlcNAc
# Procedure, shortened: as §1
# [11] = target: Gal(b1-4)GlcNAc(b1-3)Gal(b1-4)GlcNAc(b1-3)Gal(b1-4)GlcNAc
# Procedure, shortened: as §1
# [12] = target: Gal(b1-4)GlcNAc(b1-3)Gal(b1-4)GlcNAc(b1-3)Gal(b1-4)GlcNAc(b1-2)Man(a1-3)[Gal(b1-4)GlcNAc(b1-3)Gal(b1-4)GlcNAc(b1-3)Gal(b1-4)GlcNAc(b1-2)Man(a1-6)]Man(b1-4)GlcNAc(b1-4)GlcNAc
# Procedure, shortened: as §1
# [13] = target: Gal(b1-4)GlcNAc(b1-3)Gal(b1-4)GlcNAc(b1-3)Gal(b1-4)GlcNAc(b1-2)Man(a1-3)[Gal(b1-4)GlcNAc(b1-3)Gal(b1-4)GlcNAc(b1-3)Gal(b1-4)GlcNAc(b1-2)Man(a1-6)]Man(b1-4)GlcNAc(b1-4)[Fuc(a1-6)]GlcNAc
# Procedure, shortened: as §1
# [14] = target: Gal(b1-4)GlcNAc(b1-3)Gal(b1-4)GlcNAc(b1-3)Gal(b1-4)GlcNAc(b1-2)[Gal(b1-4)GlcNAc(b1-3)Gal(b1-4)GlcNAc(b1-3)Gal(b1-4)GlcNAc(b1-6)]Man(a1-6)[Gal(b1-4)GlcNAc(b1-3)Gal(b1-4)GlcNAc(b1-3)Gal(b1-4)GlcNAc(b1-2)Man(a1-3)]Man(b1-4)GlcNAc(b1-4)[Fuc(a1-6)]GlcNAc
# Procedure, shortened: as §1
# [15] = target: Gal(b1-4)GlcNAc(b1-3)Gal(b1-4)GlcNAc(b1-3)Gal(b1-4)GlcNAc(b1-3)Gal(b1-4)GlcNAc(b1-2)Man(a1-3)[Gal(b1-4)GlcNAc(b1-3)Gal(b1-4)GlcNAc(b1-3)Gal(b1-4)GlcNAc(b1-3)Gal(b1-4)GlcNAc(b1-2)Man(a1-6)]Man(b1-4)GlcNAc(b1-4)GlcNAc
# Procedure, shortened: as §1
# [16] = target: Gal(b1-4)GlcNAc(b1-3)Gal(b1-4)GlcNAc(b1-3)Gal(b1-4)GlcNAc(b1-3)Gal(b1-4)GlcNAc(b1-2)Man(a1-3)[Gal(b1-4)GlcNAc(b1-3)Gal(b1-4)GlcNAc(b1-3)Gal(b1-4)GlcNAc(b1-3)Gal(b1-4)GlcNAc(b1-2)Man(a1-6)]Man(b1-4)GlcNAc(b1-4)[Fuc(a1-6)]GlcNAc
# Procedure, shortened: as §1
# [17] = target: Gal(b1-4)GlcNAc(b1-3)Gal(b1-4)GlcNAc(b1-3)Gal(b1-4)GlcNAc(b1-3)Gal(b1-4)GlcNAc(b1-2)[Gal(b1-4)GlcNAc(b1-3)Gal(b1-4)GlcNAc(b1-3)Gal(b1-4)GlcNAc(b1-3)Gal(b1-4)GlcNAc(b1-6)]Man(a1-6)[Gal(b1-4)GlcNAc(b1-3)Gal(b1-4)GlcNAc(b1-3)Gal(b1-4)GlcNAc(b1-3)Gal(b1-4)GlcNAc(b1-2)Man(a1-3)]Man(b1-4)GlcNAc(b1-4)[Fuc(a1-6)]GlcNAc
# Procedure, shortened: as §1
# [18] = target: Gal(b1-4)GlcNAc(b1-3)Gal(b1-4)GlcNAc(b1-3)Gal(b1-4)GlcNAc(b1-3)Gal(b1-4)GlcNAc(b1-3)Gal(b1-4)GlcNAc(b1-2)Man(a1-3)[Gal(b1-4)GlcNAc(b1-3)Gal(b1-4)GlcNAc(b1-3)Gal(b1-4)GlcNAc(b1-3)Gal(b1-4)GlcNAc(b1-3)Gal(b1-4)GlcNAc(b1-2)Man(a1-6)]Man(b1-4)GlcNAc(b1-4)GlcNAc
# Procedure, shortened: as §1
# [19] = target: Gal(b1-4)GlcNAc(b1-3)Gal(b1-4)GlcNAc(b1-3)Gal(b1-4)GlcNAc(b1-3)Gal(b1-4)GlcNAc(b1-3)Gal(b1-4)GlcNAc(b1-2)Man(a1-3)[Gal(b1-4)GlcNAc(b1-3)Gal(b1-4)GlcNAc(b1-3)Gal(b1-4)GlcNAc(b1-3)Gal(b1-4)GlcNAc(b1-3)Gal(b1-4)GlcNAc(b1-2)Man(a1-6)]Man(b1-4)GlcNAc(b1-4)[Fuc(a1-6)]GlcNAc
# Procedure, shortened: as §1
# [20] = target: Gal(b1-4)GlcNAc(b1-3)Gal(b1-4)GlcNAc(b1-3)Gal(b1-4)GlcNAc(b1-3)Gal(b1-4)GlcNAc(b1-3)Gal(b1-4)GlcNAc(b1-2)[Gal(b1-4)GlcNAc(b1-3)Gal(b1-4)GlcNAc(b1-3)Gal(b1-4)GlcNAc(b1-3)Gal(b1-4)GlcNAc(b1-3)Gal(b1-4)GlcNAc(b1-6)]Man(a1-6)[Gal(b1-4)GlcNAc(b1-3)Gal(b1-4)GlcNAc(b1-3)Gal(b1-4)GlcNAc(b1-3)Gal(b1-4)GlcNAc(b1-3)Gal(b1-4)GlcNAc(b1-2)Man(a1-3)]Man(b1-4)GlcNAc(b1-4)[Fuc(a1-6)]GlcNAc
# Procedure, shortened: as §1
# [21] = target: Gal(b1-4)GlcNAc(b1-3)Gal(b1-4)GlcNAc(b1-3)Gal(b1-4)GlcNAc(b1-3)Gal(b1-4)GlcNAc(b1-3)Gal(b1-4)GlcNAc(b1-3)Gal(b1-4)GlcNAc(b1-2)Man(a1-3)[Gal(b1-4)GlcNAc(b1-3)Gal(b1-4)GlcNAc(b1-3)Gal(b1-4)GlcNAc(b1-3)Gal(b1-4)GlcNAc(b1-3)Gal(b1-4)GlcNAc(b1-3)Gal(b1-4)GlcNAc(b1-2)Man(a1-6)]Man(b1-4)GlcNAc(b1-4)GlcNAc
# Procedure, shortened: as §1
# [22] = target: Gal(b1-4)GlcNAc(b1-3)Gal(b1-4)GlcNAc(b1-3)GalNAc
# Procedure, shortened: as §1
# [23] = target: Gal(b1-4)GlcNAc(b1-3)Gal(b1-4)GlcNAc(b1-3)[Gal(b1-4)GlcNAc(b1-3)Gal(b1-4)GlcNAc(b1-6)]GalNAc
# Procedure, shortened: as §1
# [24] = target: Gal(b1-4)GlcNAc(b1-3)Gal(b1-4)GlcNAc(b1-6)[Gal(b1-3)]GalNAc
# Procedure, shortened: as §1
# [25] = target: Gal(b1-4)GlcNAc(b1-3)Gal(b1-4)[Fuc(a1-3)]GlcNAc(b1-3)Gal(b1-4)[Fuc(a1-3)]GlcNAc
# Procedure, shortened: as §1
# [26] = target: Gal(b1-4)GlcNAc(b1-3)GalNAc
# Procedure, shortened: as §1
# [27] = target: Gal(b1-4)GlcNAc(b1-3)[Fuc(a1-3)GlcNAc(b1-6)]Gal(b1-4)Glc
# Procedure, shortened: as §1
# [28] = target: Gal(b1-4)GlcNAc(b1-3)[Gal(b1-4)GlcNAc(b1-6)]Gal(b1-4)GlcNAc
# Procedure, shortened: as §1
# [29] = target: Gal(b1-4)GlcNAc(b1-3)[GlcNAc(b1-6)]Gal(b1-4)GlcNAc
# Procedure, shortened: as §1
# [30] = target: Gal(b1-4)GlcNAc(b1-6)Gal(b1-4)GlcNAc
# Procedure, shortened: as §1
# [31] = target: Gal(b1-4)GlcNAc(b1-6)GalNAc
# Procedure, shortened: as §1
# [32] = target: Gal(b1-4)GlcNAc(b1-6)[Gal(b1-3)]GalNAc
# Procedure, shortened: as §1
# [33] = target: Gal(b1-4)GlcNAc(b1-6)[Gal(b1-4)GlcNAc(b1-3)]GalNAc
# Procedure, shortened: as §1
# [34] = target: Gal(b1-4)GlcNAc6P
# Procedure, shortened: as §1
# [35] = target: Gal(b1-6)Gal
# Procedure, shortened: as §1
# [36] = target: Gal3S(b1-3)GalNAc
# Procedure, shortened: as §1
# [37] = target: Gal3S(b1-3)GlcNAc
# Procedure, shortened: as §1
# [38] = target: Gal3S(b1-3)[Fuc(a1-4)]GlcNAc
# Procedure, shortened: as §1
binder,measurement,setting,value
B1,glycan array binding signal (z-score),[1],-0.875
same,glycan array binding signal (z-score),[2],1.79
same,glycan array binding signal (z-score),[3],-0.739
same,glycan array binding signal (z-score),[4],-0.895
same,glycan array binding signal (z-score),[5],0.207
same,glycan array binding signal (z-score),[6],0.079
same,glycan array binding signal (z-score),[7],0.292
same,glycan array binding signal (z-score),[8],1.24
same,glycan array binding signal (z-score),[9],-0.241
same,glycan array binding signal (z-score),[10],-1.28
same,glycan array binding signal (z-score),[11],-0.735
same,glycan array binding signal (z-score),[12],0.96
same,glycan array binding signal (z-score),[13],-0.466
same,glycan array binding signal (z-score),[14],0.613
same,glycan array binding signal (z-score),[15],0.863
same,glycan array binding signal (z-score),[16],0.552
same,glycan array binding signal (z-score),[17],0.591
same,glycan array binding signal (z-score),[18],-0.185
same,glycan array binding signal (z-score),[19],-0.723
same,glycan array binding signal (z-score),[20],1.26
same,glycan array binding signal (z-score),[21],0.46
same,glycan array binding signal (z-score),[22],-1
same,glycan array binding signal (z-score),[23],-0.172
same,glycan array binding signal (z-score),[24],-0.68
same,glycan array binding signal (z-score),[25],0.104
same,glycan array binding signal (z-score),[26],-0.288
same,glycan array binding signal (z-score),[27],-0.576
same,glycan array binding signal (z-score),[28],-0.298
same,glycan array binding signal (z-score),[29],-0.604
same,glycan array binding signal (z-score),[30],1.76
same,glycan array binding signal (z-score),[31],-0.131
same,glycan array binding signal (z-score),[32],-0.098
same,glycan array binding signal (z-score),[33],0.309
same,glycan array binding signal (z-score),[34],0.706
same,glycan array binding signal (z-score),[35],0.332
same,glycan array binding signal (z-score),[36],0.24
same,glycan array binding signal (z-score),[37],-0.591
same,glycan array binding signal (z-score),[38],-0.022

# A section taken from the entries so far, as a working copy:
binder,measurement,setting,value
B1,glycan array binding signal (z-score),[26],-0.288
same,glycan array binding signal (z-score),[27],-0.576
